The target in experiment [1] is Vpu-V5-APEX2 (HIV-1 viral protein U fused to a V5-APEX2 tag) (HIV-1) (UniProt P05923). As to the kind of experiment: co-IP; V5-tagged Vpu as bait: HeLa lysate (Pierce IP lysis buffer), anti-V5 magnetic beads 2 h at 4 C; western blot with anti-human RBM10. Background: In western blotting, separated proteins are transferred to a membrane and probed.
For experiment [2], the target named is RBM10 in the other NanoBiT fusion combinations (human) (UniProt P98175). As to the kind of experiment: split reporter; NanoBiT in HEK293T cells co-transfected 1:1 with Vpu and RBM10 LgBiT/SmBiT fusions; luminescence of live cells 48 h after transfection; empty vector as negative control.
Experiment [3] addresses BST-2 (tetherin) of the Vpu-BST-2 binding test of Fig. S4A (UniProt Q10589). As to the kind of experiment: split reporter; Vpu-BST-2 binding of Fig. S4A; the method is not named for this figure, the Vpu mutants were made as NanoBiT reporter vectors.
In experiment [4] the target is RBM10 fused to SmBiT (pBiT2.1-C-rbm10) (human) (UniProt P98175). As to the kind of experiment: split reporter; NanoBiT in HEK293T cells co-transfected 1:1 with Vpu and RBM10 LgBiT/SmBiT fusions; luminescence of live cells 48 h after transfection; empty vector as negative control.
For experiment [5], the target named is RNA-binding motif protein 10 (RBM10), endogenous (human (endogenous in HeLa)) (UniProt P98175). As to the kind of experiment: co-IP; RBM10 as bait: lysate in RIPA buffer, pre-incubated with protein A/G beads, anti-RBM10 polyclonal antibody or IgG overnight at 4 C; western blot with anti-V5.

By UniProt entry, the sequences of proteins in these tests, tags left out. Where a name states a change or a piece, a line headed by the entry shows the natural chain unless it says otherwise. Residues count along the entry.
UniProt P05923: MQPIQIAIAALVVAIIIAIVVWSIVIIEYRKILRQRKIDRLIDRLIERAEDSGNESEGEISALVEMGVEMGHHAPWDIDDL
UniProt P98175: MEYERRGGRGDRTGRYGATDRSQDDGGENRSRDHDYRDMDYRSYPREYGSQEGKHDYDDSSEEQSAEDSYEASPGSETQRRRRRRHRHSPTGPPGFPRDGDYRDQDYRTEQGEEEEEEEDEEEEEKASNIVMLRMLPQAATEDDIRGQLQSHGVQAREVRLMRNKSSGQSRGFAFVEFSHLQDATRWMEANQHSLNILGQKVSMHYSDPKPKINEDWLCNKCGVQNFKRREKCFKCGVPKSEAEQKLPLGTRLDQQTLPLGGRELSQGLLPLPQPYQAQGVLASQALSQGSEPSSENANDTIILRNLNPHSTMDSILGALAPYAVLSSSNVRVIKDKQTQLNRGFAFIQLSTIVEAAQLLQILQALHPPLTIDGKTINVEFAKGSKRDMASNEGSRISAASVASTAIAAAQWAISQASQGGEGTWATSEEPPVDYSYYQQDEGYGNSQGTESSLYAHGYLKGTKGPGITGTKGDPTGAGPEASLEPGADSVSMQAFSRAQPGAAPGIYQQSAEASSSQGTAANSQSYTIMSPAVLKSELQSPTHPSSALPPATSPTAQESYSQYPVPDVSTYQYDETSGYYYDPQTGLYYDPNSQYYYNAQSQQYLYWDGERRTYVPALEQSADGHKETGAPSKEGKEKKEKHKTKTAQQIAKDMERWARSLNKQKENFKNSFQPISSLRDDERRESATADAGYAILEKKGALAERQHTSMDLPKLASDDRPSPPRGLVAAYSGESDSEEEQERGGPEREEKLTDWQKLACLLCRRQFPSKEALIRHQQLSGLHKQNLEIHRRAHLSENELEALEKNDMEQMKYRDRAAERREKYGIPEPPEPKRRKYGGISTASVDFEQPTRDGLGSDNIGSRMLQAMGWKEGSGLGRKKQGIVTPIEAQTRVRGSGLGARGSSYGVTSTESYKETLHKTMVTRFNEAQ
UniProt Q10589, residues 1-161: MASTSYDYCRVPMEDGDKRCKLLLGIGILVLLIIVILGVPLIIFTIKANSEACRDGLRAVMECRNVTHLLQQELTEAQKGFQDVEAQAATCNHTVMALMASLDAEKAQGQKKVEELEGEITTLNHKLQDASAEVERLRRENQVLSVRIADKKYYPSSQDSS

Binding data for 4 substances are collected here from article PMC12363165.

No constants are given. Whether binding was seen depends on the method and setting. In cells and extracts the contact can be indirect. Some entries that bind do so weakly or less than the wild type.

Take “RNA-binding motif protein 10 (RBM10), endogenous (from UniProt P98175 1-930)”: the binding result in experiment [1] is on record as “binds”.

Consider “Vpu in the other NanoBiT fusion combinations (from UniProt P05923 1-81)”, for which, in experiment [2], the binding result was “binds”.

Turning to “Vpu with LgBiT fused to its C-terminus (pBiT1.1-C-vpu) (from UniProt P05923 1-81)”, the binding entry in experiment [3] and in experiment [4] was “binds” throughout.

Take “Vpu-V5-APEX2 (HIV-1 viral protein U fused to a V5-APEX2 tag) (from UniProt P05923 1-81)”: the binding entry in experiment [5] is on record as “binds”.
